This is an account of results in paper PMC4031514.

The chains behind the UniProt entries cited, without tags or fusion partners. Residues count along the entry.
UniProt Q8IXI2: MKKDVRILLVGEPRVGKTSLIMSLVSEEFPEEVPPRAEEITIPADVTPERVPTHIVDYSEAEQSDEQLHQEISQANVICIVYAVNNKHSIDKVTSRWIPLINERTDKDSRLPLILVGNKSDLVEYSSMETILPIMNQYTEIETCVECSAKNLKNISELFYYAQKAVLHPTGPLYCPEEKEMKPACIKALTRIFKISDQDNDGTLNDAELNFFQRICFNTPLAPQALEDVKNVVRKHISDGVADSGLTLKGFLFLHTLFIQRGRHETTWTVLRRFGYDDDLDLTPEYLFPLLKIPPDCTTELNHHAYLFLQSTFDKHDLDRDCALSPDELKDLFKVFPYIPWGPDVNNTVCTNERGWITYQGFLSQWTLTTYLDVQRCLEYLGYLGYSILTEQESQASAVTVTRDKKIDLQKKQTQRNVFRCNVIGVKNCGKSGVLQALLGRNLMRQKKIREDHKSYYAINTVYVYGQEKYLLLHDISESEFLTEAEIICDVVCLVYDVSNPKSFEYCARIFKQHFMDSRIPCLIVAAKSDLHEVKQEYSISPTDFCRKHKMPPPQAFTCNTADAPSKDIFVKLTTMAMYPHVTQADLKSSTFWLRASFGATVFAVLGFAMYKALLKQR
UniProt Q9BXM7, residues 78-581: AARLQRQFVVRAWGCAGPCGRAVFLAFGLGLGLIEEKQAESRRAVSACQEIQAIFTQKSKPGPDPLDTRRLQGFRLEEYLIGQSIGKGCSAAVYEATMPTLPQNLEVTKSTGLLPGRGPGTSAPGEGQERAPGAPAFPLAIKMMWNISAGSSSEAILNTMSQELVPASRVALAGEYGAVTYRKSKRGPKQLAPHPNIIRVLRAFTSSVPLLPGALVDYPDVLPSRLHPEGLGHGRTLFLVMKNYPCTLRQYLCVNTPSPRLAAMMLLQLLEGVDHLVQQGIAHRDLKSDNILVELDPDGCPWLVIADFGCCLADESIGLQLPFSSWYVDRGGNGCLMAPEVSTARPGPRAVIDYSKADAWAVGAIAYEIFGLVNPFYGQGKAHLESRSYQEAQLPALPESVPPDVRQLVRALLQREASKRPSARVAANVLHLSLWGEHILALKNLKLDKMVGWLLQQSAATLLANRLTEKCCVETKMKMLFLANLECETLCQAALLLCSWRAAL

One experiment concerns the target T1, GFP-TRAK1 (mouse) (UniProt Q6PD31).
T1 sequence: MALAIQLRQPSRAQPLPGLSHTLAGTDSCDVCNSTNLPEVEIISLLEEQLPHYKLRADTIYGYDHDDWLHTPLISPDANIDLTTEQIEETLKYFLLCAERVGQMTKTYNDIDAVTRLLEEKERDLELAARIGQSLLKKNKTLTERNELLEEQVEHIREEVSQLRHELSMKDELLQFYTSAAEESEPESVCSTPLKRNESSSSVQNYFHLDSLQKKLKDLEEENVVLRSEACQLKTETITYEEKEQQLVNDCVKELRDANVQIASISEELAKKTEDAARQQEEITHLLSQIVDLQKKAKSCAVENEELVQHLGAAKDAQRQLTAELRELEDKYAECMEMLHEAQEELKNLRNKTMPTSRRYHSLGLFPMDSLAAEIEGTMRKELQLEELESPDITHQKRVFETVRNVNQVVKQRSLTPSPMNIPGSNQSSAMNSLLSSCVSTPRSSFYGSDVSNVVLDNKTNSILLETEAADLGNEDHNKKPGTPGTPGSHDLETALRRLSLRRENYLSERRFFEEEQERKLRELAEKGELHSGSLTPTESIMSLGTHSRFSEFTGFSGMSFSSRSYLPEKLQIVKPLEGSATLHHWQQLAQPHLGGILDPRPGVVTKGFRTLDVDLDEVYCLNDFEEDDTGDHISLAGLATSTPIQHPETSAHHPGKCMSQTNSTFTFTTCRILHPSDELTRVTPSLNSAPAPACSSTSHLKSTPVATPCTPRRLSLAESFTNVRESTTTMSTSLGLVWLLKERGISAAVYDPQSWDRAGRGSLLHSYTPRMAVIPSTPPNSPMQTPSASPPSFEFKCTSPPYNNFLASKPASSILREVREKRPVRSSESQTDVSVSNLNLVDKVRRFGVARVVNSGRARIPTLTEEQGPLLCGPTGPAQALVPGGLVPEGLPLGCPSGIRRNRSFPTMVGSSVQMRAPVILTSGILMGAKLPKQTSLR
Kind of experiment: co-IP; coimmunopurification of mycMiro1 and GFP-TRAK1 from transfected cells, untreated or treated with 10 uM FCCP, 1 h; GFP-TRAP beads per the methods; lysis in 50 mM Tris pH 7.4, 150 mM NaCl, 1 mM EDTA, 0.5% Triton X-100; western blot, densitometry. In general terms: A western blot detects proteins with antibodies after separation by electrophoresis.

A further experiment has as its target GFP-tagged Miro1 (UniProt Q8IXI2). Kind of experiment: co-IP; GFP-TRAP beads capture GFP-Miro1 from lysates of SH-SY5Y cells stably overexpressing FLAG-Parkin and transfected with GFP-Miro1 and PINK1-myc; cells untreated or treated with 10 uM FCCP, 1 h; lysis in 50 mM Tris pH 7.4, 150 mM NaCl, 1 mM EDTA, 0.5% Triton X-100; western blot.

Results are given in words; binding and its absence hold for the method and conditions named. Binding seen in cells or lysates may run through a third protein. Some entries that bind do so weakly or less than the wild type. For some assays here: Where a sequence is shown, tags or fusion partners need not be part of it.

In the case of “Myc-tagged Miro1 (from UniProt Q8IXI2 1-618)”, the binding result in the experiment with GFP-TRAK1 (mouse) is “binds”. Consider “Myc-tagged PINK1 (from UniProt Q9BXM7 78-581)”, for which the binding result in the experiment with GFP-tagged Miro1 is given as “binds”.
